Data reported in ChEMBL document CHEMBL1138743, “Discovery of novel heteroarylazoles that are metabotropic glutamate subtype 5 receptor antagonists with anxiolytic activity” (J Med Chem, 2004).

The chains behind the UniProt entries cited, without tags or fusion partners.
UniProt P41594, whole entry: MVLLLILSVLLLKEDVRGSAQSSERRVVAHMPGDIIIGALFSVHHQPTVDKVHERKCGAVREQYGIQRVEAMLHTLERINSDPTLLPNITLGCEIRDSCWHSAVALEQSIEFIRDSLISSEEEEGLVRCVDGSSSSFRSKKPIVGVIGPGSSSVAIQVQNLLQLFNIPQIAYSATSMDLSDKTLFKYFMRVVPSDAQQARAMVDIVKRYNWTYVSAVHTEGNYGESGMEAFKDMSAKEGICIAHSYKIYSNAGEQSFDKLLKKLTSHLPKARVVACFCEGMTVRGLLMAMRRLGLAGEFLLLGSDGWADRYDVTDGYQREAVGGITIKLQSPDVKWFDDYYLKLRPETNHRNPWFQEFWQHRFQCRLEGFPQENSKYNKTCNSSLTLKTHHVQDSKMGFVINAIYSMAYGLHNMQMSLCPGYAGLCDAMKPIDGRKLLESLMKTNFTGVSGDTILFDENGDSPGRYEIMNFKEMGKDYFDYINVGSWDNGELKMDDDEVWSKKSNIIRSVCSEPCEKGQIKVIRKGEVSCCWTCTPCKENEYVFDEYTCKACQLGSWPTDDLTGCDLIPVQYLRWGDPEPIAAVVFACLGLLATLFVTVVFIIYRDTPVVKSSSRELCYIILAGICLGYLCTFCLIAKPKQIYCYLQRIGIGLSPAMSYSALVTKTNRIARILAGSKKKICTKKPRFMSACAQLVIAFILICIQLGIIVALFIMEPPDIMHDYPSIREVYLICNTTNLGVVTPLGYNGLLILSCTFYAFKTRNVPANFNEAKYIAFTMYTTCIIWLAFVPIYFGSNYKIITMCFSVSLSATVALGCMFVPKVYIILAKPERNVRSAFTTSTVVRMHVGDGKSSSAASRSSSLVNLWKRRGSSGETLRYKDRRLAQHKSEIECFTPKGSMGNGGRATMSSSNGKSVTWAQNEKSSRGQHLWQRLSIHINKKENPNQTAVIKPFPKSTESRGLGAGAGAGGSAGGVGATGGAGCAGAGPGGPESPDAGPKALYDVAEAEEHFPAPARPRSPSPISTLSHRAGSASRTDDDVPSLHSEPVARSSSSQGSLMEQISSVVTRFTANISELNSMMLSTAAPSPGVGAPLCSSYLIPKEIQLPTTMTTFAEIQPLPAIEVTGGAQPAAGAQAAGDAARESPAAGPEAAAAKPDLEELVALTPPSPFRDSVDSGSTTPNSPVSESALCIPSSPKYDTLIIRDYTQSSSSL

Target: Metabotropic glutamate receptor 5 (Homo sapiens, UniProt P41594)
Test: Inhibitory concentration towards human glutamate receptor 5 in calcium flux assay
Assay type: functional
Method in brief: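 Ltk cells stably expressing human recombinant mGlu5; glutamate as agonist. Cytosolic Ca2+ changes read by fura-2 fluorescence in an automated format. IC50 given as geometric mean with limits and replicate number.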

- IC50: 100 nM
SMILES: N#Cc1cccc(-c2nc(-c3ccccn3)no2)c1
